Data set [1] in a line: solid-phase peptide synthesis. The note with it: for isolated mass / isolated yield / crude mass: whole synthesis; for isolated yield: scale of the general procedure 6 g of Boc-Phe-PAM resin.
The nature of data set [2]: Boc solid-phase peptide synthesis; BHA; DCC/HOBt. The note with it: whole synthesis.
Data set [3] can be described thus: general procedure: Fmoc solid-phase peptide synthesis; PAL; DCC/HOBt. Particulars: whole synthesis.
Data set [4] is described as follows: general procedure: Fmoc solid-phase peptide synthesis; PAL resin; DCC/HOBt. The note with it: whole synthesis.

Strings that start with PEPTIDE1 are HELM notation: dots part the residues, brackets hold end groups and non-standard residues.

The source of these data is patent publication US5508437A (Hoffmann-La Roche Inc., priority 1993, dated 1996).

For the substance “PEPTIDE1{[desaminoPhe(4-tetrazole)].M.G.W.M.D.F.[am]}$$$$V2.0”, in data set [1], the isolated mass is reported as 15 mg and the isolated yield amounted to 10.8%. The crude mass in data set [2] is given as 340 mg.
In data set [1] (late stage modification step), “PEPTIDE1{[ac].[D-Phe(4-CH2COOEt)].M.G.W.M.[Asp(OEt)].F.[am]}$$$$V2.0” registered a step yield of 49%.
In data set [1], “PEPTIDE1{[desNH2-Phe(4-CH2COOH)].M.G.W.M.D.[NMePhe].[am]}$$$$V2.0” returned an isolated mass of 12 mg and an isolated yield of 7.2%. The substance further came in with a crude mass in data set [3] of 268 mg.
In data set [1], “PEPTIDE1{[ac].[Phe(4-CH2CH2COOH)].M.G.W.M.D.F.[am]}$$$$V2.0” gave a crude mass of 831 mg, an isolated mass of 17 mg and an isolated yield of 29%.
The matching figures for “PEPTIDE1{[desaminoPhe(4-CH2COOH)].M.G.W.M.D.F.[am]}$$$$V2.0”: 733 mg, 8 mg and 38%.
Consider “PEPTIDE1{[desaminoPhe(4-CH2COOH)].[Nle].[dA].W.[Nle].D.[NMePhe].[am]}$$$$V2.0”, for which, in data set [1], the isolated mass is given as 20 (12.1%) mg and the isolated yield is given as 12.1%. In addition, in data set [4], the crude mass is given as 300 mg.
For “PEPTIDE1{[desNH2-Phe(4-tetrazole)].K.G.W.M.D.[NMePhe].[am]}$PEPTIDE1,PEPTIDE1,2:R3-6:R3$$$V2.0”, in data set [1], the crude mass is on record as 439 mg, the isolated mass was 15 mg and the isolated yield is 13.7%.
In data set [1], “PEPTIDE1{[desaminoPhe(4-CH2-tetrazole)].[Nle].G.W.[Nle].D.[NMePhe].[am]}$$$$V2.0” registered an isolated mass of 16 mg and an isolated yield of 17.7%. The crude mass in data set [2] was 400 mg.
In data set [1], “PEPTIDE1{[desNH2-Phe(4-CH2COOH)].[Nle].G.W.[Nle].D.[NMePhe].[am]}$$$$V2.0” yielded an isolated mass of 10 mg and an isolated yield of 6.2%. The substance further had a crude mass in data set [3] of 240 mg.
